No constants are given. Whether binding was seen depends on the method and setting.
Target: human P58^IPK (residues 35-461; TPR domain and J domain) (human) (UniProt Q13217)
Test: SEC; Superdex 200 column, gel-filtration buffer 50 mM Tris-HCl pH 8.0, 300 mM NaCl; both purified

binding: no binding
B1: human P58^IPK (residues 35-461; TPR domain and J domain) (domain or fragment, UniProt Q13217 35-461)
chain: ADVEKHLELGKKLLAAGQLADALSQFHAAVDGDPDNYIAYYRRATVFLAMGKSKAALPDLTKVIQLKMDFTAARLQRGHLLLKQGKLDEAEDDFKKVLKSNPSENEEKEAQSQLIKSDEMQRLRSQALNAFGSGDYTAAIAFLDKILEVCVWDAELRELRAECFIKEGEPRKAISDLKAASKLKNDNTEAFYKISTLYYQLGDHELSLSEVRECLKLDQDHKRCFAHYKQVKKLNKLIESAEELIRDGRYTDATSKYESVMKTEPSIAEYTVRSKERICHCFSKDEKPVEAIRVCSEVLQMEPDNVNALKDRAEAYLIEEMYDEAIQDYETAQEHNENDQQIREGLEKAQRLLKQSQKRDYYKILGVKRNAKKQEIIKAYRKLALQWHPDNFQNEEEKKKAEKKFIDIAAAKEVLSDPEMRKKFDDG

Source: article PMC3143134
